For part of these data: HELM strings list residues between dots; [ac] is acetyl, [am] amide, other brackets name non-standard units. Bridge positions count the residues as written; N and C are the ends. Square brackets hold non-standard residues; d marks the D form. * marks the point of attachment. 2Nal = N[C@@H](Cc1ccc2ccccc2c1)C(=O)O; Lys(iPr) = CC(C)NCCCC[C@H](N)C(=O)O; hCys = N[C@@H](CCS)C(=O)O; Bz = O=C(c1ccccc1)*; Mpa = O=C(O)CCS
Assay: general procedure: Fmoc solid-phase peptide synthesis; 2-chlorotrityl chloride resin; DCC/HOBt
Conditions: whole synthesis, analytical HPLC, scale of the general procedure 3.6 grams of Rink AM resin, acetate salt

Substance	final HPLC purity [%]
Cyclo[Mpa-Tyr-Lys(iPr)-(D-Arg)-2Nal-Gly-Cys]-Lys(iPr)-Gly-NH(Et)	95.71
Cyclo[Mpa-Tyr-Lys(iPr)-(D-Arg)-2Nal-Gly-Cys]-Lys(iPr)-Gly-(D-Phe)-Gly-NH(Et)	96.54

Assay: general procedure: Fmoc solid-phase peptide synthesis; Rink AM resin; DCC/HOBt
Conditions: whole synthesis, analytical HPLC, scale of the general procedure 3.6 grams of Rink AM resin, acetate

Substance	final HPLC purity [%]
Benzoyl-cyclo[hCys-Tyr-Lys(iPr)-(D-Arg)-2Nal-Gly-Cys]-Lys(iPr)-Gly-NH(Et)	97.59
Bz-CY[Lys(iPr)][dR][2Nal]GC[Lys(iPr)]G-NH2 (disulfide 1-7)	97.04
Cyclo[Mpa-Tyr-Lys(iPr)-(D-Arg)-2Nal-Gly-Cys]-Lys(iPr)-Lys(lauroyl)-NH(Et)	95.42
Bz-CY[Lys(iPr)][dR][2Nal]G[hCys][Lys(iPr)]G-NH2 (disulfide 1-7)	95.64
Cyclo[Mpa-Tyr-Lys(iPr)-(D-Arg)-2Nal-Gly-Cys]-Lys(iPr)-Lys(palmitoyl)-NH(Et)	95.31
PEPTIDE1{[ac].C.Y.[Lys(iPr)].[dR].[2Nal].G.C.[Lys(iPr)].G.[am]}|CHEM1{[mXyl]}$PEPTIDE1,CHEM1,2:R3-1:R1|PEPTIDE1,CHEM1,8:R3-1:R2$$$V2.0	95.23
Phenylacetyl-cyclo[hCys-Tyr-Lys(iPr)-(D-Arg)-2Nal-Gly-Cys]-Lys(iPr)-Gly-NH2	95.67
Ac-cyclo[hCys-Tyr-Lys(iPr)-(D-Arg)-2Nal-Gly-Cys]-Lys(iPr)-Gly-NH(Et)	95.03

Same assay, conditions: whole synthesis, analytical HPLC, scale of the general procedure 3.6 grams of Rink AM resin, acetate salt

Substance	final HPLC purity [%]
[Mpa]Y[Lys(iPr)][dR][2Nal]GCRG[dF]G-NH2 (disulfide 1-7)	98.78
Cyclo[Mpa-Tyr-Lys(iPr)-(D-Arg)-2Nal-Gly-Cys]-Lys(iPr)-Lys(lauroyl)-NH(Et)	96.42
Bz-[hCys]Y[Lys(iPr)][dR][2Nal]GC[Lys(iPr)]G-NH2 (disulfide 1-7)	95.98
Ac-[hCys]Y[Lys(iPr)][dR][2Nal]GC[Lys(iPr)]G-NH2 (disulfide 1-7)	96.13
[Mpa]Y[Lys(iPr)][dR][2Nal]GC[dR]G[dF]G-NH2 (disulfide 1-7)	97.02
[Mpa]YR[dR][2Nal]GCRG[dF]G-NH2 (disulfide 1-7)	96.64
[Mpa]RYR[2Nal]GCRG[dF]G-NH2 (disulfide 1-7)	96.05
[Mpa]Y[Lys(iPr)][dR][2Nal]GC[Lys(iPr)]G[2Nal]G-NH2 (disulfide 1-7)	96.44

Reference: patent US10351601B2 (Mainline Biosciences, priority 2016, dated 2019)
